Hit rate of the full screen: of about 53,000 sequences, about 3,700 (7%) were called active.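 Rule for the calls: active = gene knockdowns whose robust z-score for IL-1 alpha signal is at least 2 or at most -2, so actives lie on both sides; inactive = the rest.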 This is one part of the list.
Test: Components of the Cytosolic LPS Sensing Pathway: Gene Identification via Genome-wide siRNA Screen;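 note: robust z of the log signal after scaling to non-targeting control siRNA wells of the plate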
Conditions: RAW264.7 macrophages, IL-1a HTRF, actives lie on both sides, screened at 100 nM (by protocol), cells primed 5 h with Pam3CSK4 first
How it was run: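 Supernatant IL-1a by HTRF from RAW264.7 cells primed with Pam3CSK4 (5 hours) and transfected with LipidA (24 hour) after 48h siRNA knockdown at 100 nM; cell viability checked with CellTiter-Glo.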

Sequence | z-score
GGACCAGAGGAGAUUUCAATT against Ern2 | inactive: 1.56
GGAAACCCAUUCACAAAUCTT against Tfec | inactive: 0.798
GCCUUGAGACAAUGAGACATT against Ambn | inactive: -0.651
GCUCAGAGACAAGCAACUGTT against Kcnk7 | inactive: 0.247
CGUGUCUGAAGGACUACAATT against 1700052K11Rik | inactive: 0.0454
GGUGCUGGAGUUCAUGUACTT against Zbtb17 | inactive: -0.172
GGAAUUGUAUUACUUUGAGTT against Tm9sf1 | inactive: -0.473
GGUGGUAAAUAAUUAAGGATT against Clec14a | inactive: 0.623
CCGGACCUUAUUGUCAUUUTT against Higd2a | inactive: -0.943
UAGGACAGGGAAAAAACUATT against Olfr1065 | inactive: 1.01
GGACAAAAUAGAGUGGAUCTT against Ropn1l | inactive: -0.202
CGAGCUUUCUUCGUACACCTT against Dvl2 | inactive: -1.74
GCGGGUUAAUUAUCAACUUTT against Agpat3 | inactive: 0.071
GGACAUUGUCAAUAUGCUCTT against Pygm | inactive: 0.633
GGUAAUCAAAGAAGUCAAGTT against Dnaja2 | inactive: 1.99
GGCCUGAGUAUAAAGUUAGTT against Wbp2 | inactive: 1.6
GGGAUGAACUAUUGGCAGGTT against Lyzl1 | inactive: -0.679
CAGUGCUCAUCAAUAUUGATT against Olfr1163 | inactive: -0.188
CCACCCUUCUUCUAUCGAATT against Ybx2 | inactive: -1.11
CGUGAGUGUCCAUGUGACCTT against C4a | inactive: -1.23
GCUGUUGAUUGGUCAACUATT against Lmnb1 | inactive: -1.08
CCAACACGCGCUCUUUUGATT against Ccdc177 | inactive: 0.196

Sequence | z-score
GGAGUAUAAUGCCUUGGUUTT against Aamdc | inactive: 0.113
CGAACUACUGACCCAGCUUTT against Ocstamp | inactive: -1.85
GGUGUACCAGCAUAGCUGUTT against Hps5 | inactive: 1.24
GGGACCUUGGAUUGUGUUGTT against Pla2g10 | inactive: 0.8
GGCCUUUAAAACUCCUGAATT against Lzic | inactive: 0.223
GGACAUGAAGAUAGCAAUUTT against Olfr424 | inactive: 0.0469
GCAUGCGUGUCCAUCACAUTT against A730036I17Rik | inactive: -0.426
GCUUACUUGGUGCUCGUGUTT against Mettl21e | inactive: 1.95
GGAAAUUAUUCCAAGGUCUTT against Mepce | inactive: 0.532
CCCUGUUAAGUCAACUAUGTT against Actl7a | inactive: 0.625
GCACAACAAGACUUUUCUCTT against Epm2a | inactive: 0.0872
GGAUGUUGGCCUCUUUCUCTT against Olfr53 | inactive: -0.137
GGACAAGUCCACAGUGUUUTT against Lss | inactive: 1.68
GCAGUCCUCCAUUAAGGUATT against Nr4a2 | inactive: 0.971
GGUAGAAGAGAACUGGACATT against Oas1a | inactive: 0.228
GGAAACAUGAUCAUUUUGATT against Olfr1179 | inactive: 0.49
GGUUCUUGCUGAGAGCAUGTT against Rft1 | inactive: 0.943
GGUCCUGAUGAAGAACGUGTT against Polr3e | inactive: 0.849
GCUAAGUACAGCAAGGACUTT against Abt1 | inactive: -1.76
GGCUGUCCAUUUUCUUAUCTT against Stc2 | inactive: 0.128
GCGAAAUUCUGAAAAAGCCTT against Abca12 | inactive: 1.37
CCUUGCUUCGCCUACUUCUTT against Rab3ip | inactive: 0.0561

Sequence | z-score
GGAAACAAGACAUAAUAGGTT against Fbxo42 | inactive: 0.458
GCCUUACACUUUCCUACAATT against Lrrc41 | inactive: 0.894
GCCUACAAUCUGAAUGAAGTT against Ctla2a | inactive: 0.796
GGAGAUAAAAAUCCAAGCATT against Stx19 | inactive: 0.274
GGACAUCAGUAUGAAUAAGTT against Wdr92 | inactive: -0.728
GGGAUUUGCUUCAACCUGGTT against Tmem128 | inactive: -0.69
GGUAUCUGUGUGACUUCACTT against Pgpep1 | active: 3.63
GCCUAGCUAUAUUAAACUCTT against Inpp5e | inactive: -0.119
GGAUGUGAUGGCGACUCUATT against Frmpd3 | inactive: 1.66
GCUGUGAAAUGUUACUGCUTT against Slc10a5 | inactive: 0.954
GGACAAAUUACAGGAUUAATT against Sod1 | inactive: 0.424
GCGUAUGUACCGAUGGCAGTT against Mocs2 | inactive: 0.871
GCAGAAAGAAACGUAAAUGTT against Dhx57 | inactive: 0.464
GCGAAGCGUGCUGCUAAGATT against Ccdc59 | inactive: 0.519
GGUCUAAUCCAGAAUCAGUTT against Ppm1f | inactive: 0.735
GGUACUGAAGGAAAUCUCUTT against Nek11 | inactive: 0.659
GGAGGUUAAAUUUUUCAGATT against Ubr2 | inactive: 0.196
CCCAUAAUGGACUAAAACUTT against Tjp2 | inactive: -0.738
GGCUCUCUGGAGAAUCAUGTT against Slc25a28 | inactive: 0.0751
GGACUACCUACUGAGCAACTT against Disc1 | inactive: -0.16
GGUGUAAAAUGUAAAGCUGTT against Hpgd | inactive: -1.75
GCAGCAGCAGGUGUCUAUGTT against Nanos3 | inactive: -0.793

A portion of the results above:
Sequence | z-score
GGUACUGAAGGAAAUCUCUTT against Nek11 | inactive: 0.659
GGAGGUUAAAUUUUUCAGATT against Ubr2 | inactive: 0.196
CCCAUAAUGGACUAAAACUTT against Tjp2 | inactive: -0.738
GGCUCUCUGGAGAAUCAUGTT against Slc25a28 | inactive: 0.0751

Further results follow:

Sequence | z-score
GGAGCUGGUCUUUUUUUUUTT against Rhobtb2 | inactive: 0.614
GGAGACGUGUCAACAUUUUTT against Tob1 | inactive: 0.842
CCUAUGCGAUUAUCGCUGCTT against Wnt7a | inactive: 1.19
GGCCCUGCCAGGUUUUUAGTT against Phactr1 | inactive: -0.476
GCAAUGCCUCAUUUCCUUGTT against S100pbp | inactive: 0.215
GGUCAUUUUAUCUAAUGUCTT against Ctse | inactive: -0.107
GCAUCGUGUGUGUAGAUAATT against Rnf187 | inactive: -0.283
GGAACAACACCUCUUCCUATT against A830005F24Rik | inactive: 0.95
GCGGAUUAACCUCUGUGGCTT against Igfl3 | inactive: 0.244
GGUCAACUCUAAGAUGCUGTT against 9930012K11Rik | inactive: 1.35
GCGCGACAAAUCGUAGGCUTT against Mamstr | active: -2.13
GGGUUUCUGGAAUACAUUCTT against Mfng | inactive: 0.219
GGAAAUUGCUCAGGAGUUUTT against Anxa5 | inactive: -1.26
GAUAUCACGGUCAUCUGUCTT against Pde6h | inactive: -0.19
CCAAUUGUGAGAAGAGUGUTT against Cog7 | inactive: -0.46
CCGUUUCAUUUCAGGGAGGTT against Phf1 | inactive: 0.307
GCCCAGGUCUUGUUGACAATT against Ppm1e | inactive: -0.585
GGCUAUUCAGUAUGCCAGATT against Atm | inactive: -0.266
GGUGGACCAUUUCAGGUUCTT against B4galt7 | inactive: 0.689
GGACCUCAUGGAGCUCCAATT against Tnnt3 | inactive: 0.924
GCUGGUGAUGACGUGUAUCTT against Slc32a1 | inactive: 0.357
GGAAGUAAAAACAUACCUUTT against Chac2 | active: 2.02

Quoted at random: 5 records from the list, in no set order.
Sequence | z-score
GCACAACAAGACUUUUCUCTT against Epm2a | inactive: 0.0872
GGCUCUCUGGAGAAUCAUGTT against Slc25a28 | inactive: 0.0751
CCAACACGCGCUCUUUUGATT against Ccdc177 | inactive: 0.196
GGAUGUGAUGGCGACUCUATT against Frmpd3 | inactive: 1.66
GCCUUACACUUUCCUACAATT against Lrrc41 | inactive: 0.894

Additional entries follow.

Sequence | z-score
GGCCAGUUUUCAGGACAGUTT against Fcgr1 | inactive: 0.802
CCAUUGUGUGGUACUUAAATT against Mrm3 | inactive: 0.448
GGAUACUCCUCUGAGUAGUTT against Mtmr11 | inactive: -0.469
GGCCUAUAAUUUCUUUACGTT against Cc2d2a | inactive: -0.823
GGGCAAAGGAAAUGGAAUCTT against Eif5 | active: 2.33
GGACACAGUAGAGCGGAUUTT against Rell2 | inactive: 0.996
GGUCCUAUGCAGAUACCAATT against Gstk1 | inactive: 0.913
GGCACCAUCGAGCUGUUAUTT against Osgep | inactive: 1.63
CCCUUUCUUUCAUGAGCCGTT against Dguok | inactive: -0.836
GGCAGAAAGCAAAAUGUUUTT against Gata3 | active: -4.28
GGGAUCAAGUUAAAUAGACTT against Snhg16 | inactive: -0.184
GGUCAAGUAACAUGGUUUGTT against Rundc3b | inactive: 0.282
CGACCAGAUGAACUGGUGUTT against Smg9 | inactive: 0.929
GCUUUAUUUUUUCCACCUUTT against Olfr106-ps | inactive: 0.333
GGCCUUGCUUCAUAUAAGGTT against Kat6b | inactive: 0.0845
GGUACGACAAAGAAAAACCTT against Rnmt | inactive: 1
GGCAGCAAGAAAAAGAUUCTT against Spi1 | inactive: -0.763
GGAAAGUGUGCUUCCAAUUTT against Olfr1138 | inactive: -1.02
GGCAUAUCAGACACCUCUUTT against Olfr697 | inactive: 0.736
